Reference: patent US20160000866A1
No constants are given. Whether binding was seen depends on the method and setting. Some binding calls cover weakened binding; strength is not graded here.

Chains of the proteins cited; added tags and fusions are not shown. Lines headed by an entry give the natural chain unless they say otherwise; changes in a name come on top.
UniProt Q8BPS4: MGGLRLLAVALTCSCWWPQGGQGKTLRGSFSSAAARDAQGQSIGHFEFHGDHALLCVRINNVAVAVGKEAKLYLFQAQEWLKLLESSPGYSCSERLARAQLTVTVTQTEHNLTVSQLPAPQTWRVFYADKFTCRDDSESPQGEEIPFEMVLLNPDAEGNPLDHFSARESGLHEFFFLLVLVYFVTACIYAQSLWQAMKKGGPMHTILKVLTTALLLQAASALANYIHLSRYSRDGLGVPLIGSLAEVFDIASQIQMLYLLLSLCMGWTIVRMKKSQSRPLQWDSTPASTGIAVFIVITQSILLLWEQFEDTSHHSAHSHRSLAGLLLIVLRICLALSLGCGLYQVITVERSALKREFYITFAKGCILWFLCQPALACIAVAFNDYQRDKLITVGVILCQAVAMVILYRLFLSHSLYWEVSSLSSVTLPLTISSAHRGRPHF
UniProt Q96CG8: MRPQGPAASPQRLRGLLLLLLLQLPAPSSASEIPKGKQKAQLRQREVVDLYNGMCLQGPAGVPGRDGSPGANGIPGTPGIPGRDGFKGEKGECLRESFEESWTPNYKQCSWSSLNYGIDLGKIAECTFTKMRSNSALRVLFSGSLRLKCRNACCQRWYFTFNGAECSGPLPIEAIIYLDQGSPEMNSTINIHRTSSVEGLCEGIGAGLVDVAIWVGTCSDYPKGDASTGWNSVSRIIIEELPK

Tests used:
[1] = target: murine GPR180 with a C terminal myc epitope tag, expressed on transfected CHO-K1 cells (murine) (UniProt Q8BPS4); experiment: immunostaining, Gpr180-myc transfected CHO-K1 cells
[2] = target: murine GPR180 with a C terminal myc epitope tag, expressed on transfected CHO-K1 cells (murine) (UniProt Q8BPS4); experiment: immunocytochemistry, GPR180-myc transfected CHO-K1 cells
[3] = target: murine GPR180 with a C terminal myc epitope tag, expressed on transfected CHO-K1 cells (murine) (UniProt Q8BPS4); experiment: immunofluorescence confocal microscopy, GPR180-myc transfected CHO-K1 cells, 125 ng/ml hCthrc1, 10 min on ice
[4] = target: murine GPR180 with a C terminal myc epitope tag, expressed on transfected CHO-K1 cells (murine) (UniProt Q8BPS4); experiment: co-localization on GPR180-myc transfected CHO-K1 cells

Measured: binding

untagged hCthrc1 expressed in CHO-K1 cells (human Collagen Triple Helix Repeat Containing 1) (from UniProt Q96CG8 31-243) (ligand)
binds: [1] | [2] | [3] | [4]
